Reference: PubChem BioAssay AID493014 (National Center for Advancing Translational Sciences (NCATS), 2011)
Hit rate of the full screen: of about 340,000 compounds, about 170 (0.05%) were called active. The inconclusive results got no clear call from the source; some entries with a clear call stand among them for comparison. Calls come from the whole dose curve; as a rule, active = well fitted inhibition curve with a large enough effect in the signal ratio, with a control signal flat (not every such curve was filed as active); inconclusive = small, poorly fitted or top-dose-only effect, or effect the other way, or a change in a side signal; inactive = flat fitted curve, though single readings scatter; the % refers to the signal ratio. Potencies of inconclusive entries are doubtful fits and often do not repeat.
Potency is the fitted concentration of half-maximal effect.

Assay: qHTS Assay to Find Inhibitors of Chronic Active B-Cell Receptor Signaling;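 for activity change, negative = inhibition: plate controls were basal doxycycline-induced cells for no effect and cells given 10 µM MG132 for full effect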
Settings: ABC-DLBCL IkBa-CBG/CBR reporter, luminescence ratio (green luciferase fused to IkBa over red control in TMD8 lymphoma cells), 4 h; activity change, negative = inhibition: at 46.1 µM (top of the series) unless noted
Method in brief: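 Compounds up to 46 uM were incubated four hours with TMD8 cells whose green CBG68 luciferase is fused to IkappaBalpha; red CBR luminescence normalised the signal, and concentration-effect curves were fitted to fusion, red and ratio data.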
For `N#Cc1c2n(c3c(=S)nc[nH]c13)CCCCC2`, the activity change, negative = inhibition was inconclusive: 4.71%.
For `CCCc1cnc(N2CCN(C(=S)NC)CC2)nc1`, the activity change, negative = inhibition was inconclusive: -17.6%.
With `CCc1ccc(CN(C)Cc2nc(Cc3ccc(OC)c(OC)c3)no2)nc1` the activity change, negative = inhibition was “inactive”.
For `FC(F)(F)c1ccccc1-n1c(-c2ccco2)n[nH]c1=S`, the activity change, negative = inhibition was inconclusive: -19%.
For `COc1ccc(-c2csc(Nc3ccc(S(=O)(=O)Nc4cc(C)on4)cc3)n2)cc1C`, the Potency was inconclusive: 22.4 µM [falling, single point].
With `O=C(COC(=O)c1ccccc1F)Nc1cccnc1Cl` the activity change, negative = inhibition was inconclusive: -27.8%.
For `Cc1c(CC(=O)O)c(=O)oc2cc3c(cc12)CCC(C)(C)O3`, the activity change, negative = inhibition was inconclusive: 3.86%.
For `O=C(OCC(=O)N1CCCc2ccccc21)c1ccc(Cl)nc1`, the activity change, negative = inhibition was “inactive”.
In the case of `CCOC(=O)C1(CCOc2ccccc2)CCN(Cc2cccc(OC)c2OC)CC1`, the Potency is reported as inconclusive: 31.6 µM [falling, partial curve, poor fit].
In the case of `CC1(C)CC(=O)c2sc(NC(=O)c3ccco3)nc2C1`, the Potency is reported as inconclusive: 18.4 µM [falling, partial curve].
With `CCOC(=O)c1sc(N(Cc2ccccc2)C(=O)CCl)nc1C` the Potency was inconclusive: 14.1 µM [falling, partial curve, poor fit].
In the case of `COc1ccc(OC)c(NC(=S)NCc2ccccc2OC)c1`, the activity change, negative = inhibition is reported as “inactive”.
In the case of `O=C(CCc1ccccn1)NC1CCCc2c1cnn2-c1ccc(F)cc1F` (stereo not drawn), the activity change, negative = inhibition is reported as inconclusive: 16.4%.
In the case of `CCOC(=O)/C(=N\Nc1cc(C(F)(F)F)ccc1Cl)N(CC)CC`, the Potency is reported as inconclusive: 7.31 µM [rising, single point].
In the case of `Cc1c(C#N)c(O)n(C)c(=O)c1N=Nc1ccc(S(N)(=O)=O)cc1`, the activity change, negative = inhibition is reported as inconclusive: 20.1%.
For `Cc1ccc(O)c(-c2cc(C(=O)Nc3cccnc3)[nH]n2)c1`, the Potency was inconclusive: 31.6 µM [rising, single point].
With `CN(C(=O)c1coc(=O)c2ccccc12)c1ccc(Br)cc1` the activity change, negative = inhibition was inconclusive: -0.43%.
For `CCN1CCN(C(=O)/C(C#N)=C/c2ccc(OC(F)F)cc2)CC1`, the activity change, negative = inhibition was inconclusive: -20%.
In the case of `Cc1ccc(NC(=O)COc2ncnc3cc([N+](=O)[O-])ccc23)cc1S(=O)(=O)N1CCOCC1`, the Potency is reported as inconclusive: 12.6 µM [falling, partial curve].
For `Cc1noc(C)c1C(=O)Nc1nc(C23CC4CC(CC(C4)C2)C3)cs1`, the activity change, negative = inhibition was inconclusive: -4.98%.
With `CCCCC1(c2ccc(F)cc2)NC(=O)N(CC(=O)Nc2ccc(N3CCOCC3)cc2)C1=O` (stereo not drawn) the activity change, negative = inhibition was “inactive”.
In the case of `Cc1nnc(C)c2c(C)n(-c3ccc(Br)cc3)c(C)c12`, the activity change, negative = inhibition is reported as inconclusive: -0.412%.
In the case of `COc1ccc(C(=O)Nc2ccc(C(=O)N3CCOCC3)cc2)cc1OC`, the activity change, negative = inhibition is reported as “inactive”.
In the case of `Cc1ccnc(SCC(=O)O)n1`, the activity change, negative = inhibition is reported as inconclusive: 0.77%.
For `N#CC1=C(N)C2=C(N3CCCCC3)CCCC2C1(C#N)C#N` (stereo not drawn), the activity change, negative = inhibition was “inactive”.
With `CCn1c(=O)c(=O)[nH]c2cc(C(=O)N3CCN(c4ccccc4F)CC3)ccc21` the activity change, negative = inhibition was inconclusive: 7.68%.
In the case of `COc1ccc(-c2nc3ccccc3c(=O)[nH]2)cc1`, the activity change, negative = inhibition is reported as “inactive”.
For `COc1ccc(C2C(C(=O)c3cccs3)=C(O)C(=O)N2c2nncs2)cc1` (stereo not drawn), the activity change, negative = inhibition was inconclusive: 2.62%.
For `O=C1CC(c2ccc(Cl)c([N+](=O)[O-])c2)c2ccc3ccccc3c2N1` (stereo not drawn), the activity change, negative = inhibition was inconclusive: -0.525%.
For `CCCCN(CC)CCCNC(=O)c1cn(C)c(=O)c2c1c1ccccc1n2C`, the activity change, negative = inhibition was inconclusive: 1.84%.
For `Cc1cccc(NC(=S)N2CCC(c3nc4ccccc4o3)CC2)c1`, the activity change, negative = inhibition was “inactive”.
With `CC(C)(C)OC(=O)NC(CCCCNC=O)C(=O)O` (stereo not drawn) the activity change, negative = inhibition was inconclusive: 0.0746%.
In the case of `Cc1nn(C)c(C(=O)NNC(=S)NCc2ccco2)c1Br`, the activity change, negative = inhibition is reported as inconclusive: -2.85%.
For `COC(=O)c1cc(Nc2cc(C)c3c(O)cccc3n2)cc(C(=O)OC)c1`, the activity change, negative = inhibition was inconclusive: -8.28%.
With `COc1ccc(CCN2C(=O)CC(N3CCN(c4ccccn4)CC3)C2=O)cc1OC` (stereo not drawn) the activity change, negative = inhibition was inconclusive: -9.67%.
With `CC(NCC(O)COCCC12CC3CC(CC(C3)C1)C2)c1ccccc1` (stereo not drawn) the Potency was inconclusive: 22.4 µM [falling, single point].
With `Cc1nn(C)cc1S(=O)(=O)N1CCN(Cc2ccc(F)cc2Cl)CC1` the activity change, negative = inhibition was “inactive”.
For `COc1ccc(-c2ccc(=O)n(CC(=O)Nc3cc(OC)ccc3OC)n2)cc1`, the activity change, negative = inhibition was inconclusive: -11.9%.
For `Cc1cccc(-n2ncc3c(NNC(=O)c4ccccc4Cl)ncnc32)c1`, the activity change, negative = inhibition was inconclusive: 11.8%.
For `O=c1[nH]c(C2CCCN(S(=O)(=O)c3ccccc3)C2)nc2c1nnn2Cc1ccccc1Br` (stereo not drawn), the activity change, negative = inhibition was inconclusive: -0.98%.
With `O=C(NNS(=O)(=O)c1ccc(F)cc1F)C1Cc2c(ccc3ccccc23)O1` (stereo not drawn) the activity change, negative = inhibition was inconclusive: -19.6%.
For `CN1/C(=C/C(=O)c2ccc(Cl)cc2)Sc2cc3c(cc21)OCO3`, the activity change, negative = inhibition was inconclusive: 1.36%.
With `Cc1sc(NC(=O)CSc2nnc(N)s2)c(C#N)c1C` the Potency was inconclusive: 35.5 µM [falling, single point].
With `COc1ccc(NC(=O)Nc2c(C)n(C)n(-c3ccccc3)c2=O)cc1` the activity change, negative = inhibition was inconclusive: 2.67%.
For `CCOC(=O)C(C)n1nc(/C=C/c2ccccc2)ccc1=O` (stereo not drawn), the activity change, negative = inhibition was inconclusive: 0.215%.
In the case of `CCN(CC)CCNC(=O)c1cc2c(=O)n(C)c3ccccc3c2s1`, the Potency is reported as inconclusive: 35.5 µM [falling, single point].
With `COc1ccc(C(=O)NC(=S)N2CCCCC2c2cccnc2)cc1OC` (stereo not drawn) the activity change, negative = inhibition was inconclusive: 8.31%.
With `COc1ccc(/C=N/NC2=NCCCCC2)cc1` the activity change, negative = inhibition was inconclusive: -13.8%.
With `O=C(NC1CCCC1)c1cc2nc(-c3ccco3)cc(C(F)(F)F)n2n1` the activity change, negative = inhibition was “inactive”.
With `Cc1nc(C(=O)Nc2ccccc2Cl)cc2c1[nH]c1ccccc12` the Potency was inconclusive: 3.55 µM [falling, partial curve, poor fit].
For `Cc1cc(C)n(CCCNC(=O)c2cc(COc3ccc(C)c(C)c3)on2)n1`, the Potency was inconclusive: 15.8 µM [falling, partial curve].
With `COc1ccc(N2CCN(C3CCCN(C(=O)CCN4CCCCO4)C3)CC2)cc1` (stereo not drawn) the activity change, negative = inhibition was inconclusive: 14.8%.
In the case of `COc1ccc(C)cc1S(=O)(=O)N1CCCC(C(=O)N2CCN(c3ccccc3)CC2)C1` (stereo not drawn), the activity change, negative = inhibition is reported as inconclusive: -10.9%.
